Data source: PubChem BioAssay AID504786 (Drosophila RNAi Screening Center, 2011)

Assay: 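Fly genes required for HIF-dependent transcription when hypoxia is mimicked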 (primary screen)
Cell system: Drosophila S2 cells with a stable HIF luciferase reporter
Reagent: long dsRNA against Drosophila genes, about 0.2 µg dsRNA per well of a 384-well plate
Time to read-out: three days of knock-down, then 20 h of DFO before reading
Treatment: desferrioxamine (DFO) at 100 µM, an iron chelator that mimics hypoxia, for 20 h
Read-out: 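HIF reporter luminescence in cells given 100 µM DFO for 20 h, using the mouse ldh-a hypoxia-response element, scored as per-plate z-scores; higher means greater loss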
Reading the numbers: z-score: higher = stronger loss of HIF reporter signal
The screen tested about 21,000 reagents; shown is a random part of those that have a named target and a result. 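Primary screen; positive scores mean lost reporter signal, so the sign may be inverted from the usual convention.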 A plus sign joins genes that one reagent is predicted to hit. Further read-outs or replicates are left out here.

mei-217 + mei-218 [DRSC20349]
- z-score, replicate 1: 0

Ir7e [DRSC18011]
- z-score, replicate 1: 0

mRpL2 [DRSC10896]
- z-score, replicate 1: 0.9

CG12377 (retired record) [DRSC11671]
- z-score, replicate 1: -0.2

CG12377 (retired record) [DRSC11672]
- z-score, replicate 1: -0.2

CG42633 [DRSC16061]
- z-score, replicate 1: -0.2

VhaM9.7-c [DRSC08204]
- z-score, replicate 1: -0.2

RpS8 [DRSC16318]
- z-score, replicate 1: 5

mthl13 [DRSC05238]
- z-score, replicate 1: -0.1

l(2)37Cb [DRSC02095]
- z-score, replicate 1: 0.5

CG14071 [DRSC02374]
- z-score, replicate 1: -0.2

CG8726 [DRSC07250]
- z-score, replicate 1: -0.3

CG31156 [DRSC15753]
- z-score, replicate 1: -0.3

CG31156 [DRSC15755]
- z-score, replicate 1: 0

CG1552 [DRSC19665]
- z-score, replicate 1: -0.4

Entries listed so far whose target name begins with M or m (3):
mei-217 + mei-218 [DRSC20349]
- z-score, replicate 1: 0

mRpL2 [DRSC10896]
- z-score, replicate 1: 0.9

mthl13 [DRSC05238]
- z-score, replicate 1: -0.1

Additional entries follow:
RhoGAP92B [DRSC14507]
- z-score, replicate 1: -1.1

RhoGAP92B [DRSC15637]
- z-score, replicate 1: -0.7

ATPsynbetaL [DRSC10503]
- z-score, replicate 1: -0.1

CG9886 [DRSC00732]
- z-score, replicate 1: -0.3

Rdl [DRSC11264]
- z-score, replicate 1: 0

CG9757 [DRSC16557]
- z-score, replicate 1: -0.3

DCTN4-p62 [DRSC06101]
- z-score, replicate 1: -0.2

ArgRS-m [DRSC14186]
- z-score, replicate 1: 0.3

Obp56e [DRSC07188]
- z-score, replicate 1: -0.2

primo-2 + primo-1 [DRSC16511]
- z-score, replicate 1: -0.3

mRRF1 [DRSC10421]
- z-score, replicate 1: -0.3

CycB3 [DRSC16618]
- z-score, replicate 1: -0.2
